No constants are given. Whether binding was seen depends on the method and setting. Binding seen in cells or lysates may run through a third protein. Some results given as binding are weak or reduced against the parent protein; the word gives no strength. Values belong to the binder of their own block, whether it stands above or below them.
How the values were obtained:
Tie2-Fc = Tie2-Fc (UniProt Q02763); assay: co-immunoprecipitation: anti-Fc IP of Tie2-Fc, anti-His blot
Tie2 receptor on HUVEC = Tie2 receptor on HUVEC (human, UniProt Q02763 23-1124); assay: summary sentence of Example 3 (co-IP and HUVEC activation)

Protein sequences, listed by entry. Tags and fused reporters are not part of them. Lines headed by an entry give the natural chain unless they say otherwise; changes in a name come on top. Residues count along the entry.
UniProt Q02763: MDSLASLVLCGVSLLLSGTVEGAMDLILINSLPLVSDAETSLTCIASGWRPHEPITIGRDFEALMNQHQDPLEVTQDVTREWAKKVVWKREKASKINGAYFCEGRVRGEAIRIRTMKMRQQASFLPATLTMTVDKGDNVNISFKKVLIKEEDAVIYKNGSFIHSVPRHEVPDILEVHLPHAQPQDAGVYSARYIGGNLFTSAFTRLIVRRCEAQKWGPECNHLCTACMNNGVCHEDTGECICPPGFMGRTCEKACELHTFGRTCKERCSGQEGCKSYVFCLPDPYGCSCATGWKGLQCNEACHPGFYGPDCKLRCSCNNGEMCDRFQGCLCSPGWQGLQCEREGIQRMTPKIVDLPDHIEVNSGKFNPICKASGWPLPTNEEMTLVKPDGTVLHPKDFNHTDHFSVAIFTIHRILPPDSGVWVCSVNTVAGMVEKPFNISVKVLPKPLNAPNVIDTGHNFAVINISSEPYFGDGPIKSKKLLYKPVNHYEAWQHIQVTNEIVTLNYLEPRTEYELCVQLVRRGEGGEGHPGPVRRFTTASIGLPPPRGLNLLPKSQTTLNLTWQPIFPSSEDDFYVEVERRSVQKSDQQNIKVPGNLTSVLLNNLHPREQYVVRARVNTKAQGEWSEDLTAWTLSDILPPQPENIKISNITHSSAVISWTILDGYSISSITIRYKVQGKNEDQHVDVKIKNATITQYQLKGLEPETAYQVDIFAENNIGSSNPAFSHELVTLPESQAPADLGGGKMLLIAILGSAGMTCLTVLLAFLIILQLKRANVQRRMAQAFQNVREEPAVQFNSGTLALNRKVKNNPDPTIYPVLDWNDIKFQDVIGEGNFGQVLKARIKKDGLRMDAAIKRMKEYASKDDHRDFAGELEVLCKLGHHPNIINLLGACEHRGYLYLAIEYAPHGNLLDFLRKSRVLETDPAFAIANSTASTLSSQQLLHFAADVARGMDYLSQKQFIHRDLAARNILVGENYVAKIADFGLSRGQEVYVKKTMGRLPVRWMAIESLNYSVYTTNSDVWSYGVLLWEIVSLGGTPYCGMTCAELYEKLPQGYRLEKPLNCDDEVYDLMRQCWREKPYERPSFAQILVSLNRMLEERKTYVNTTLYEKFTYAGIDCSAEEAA
Tie2-Fc: residues 23-748 of Q02763

binding (Tie2-Fc): binds
B1: C4BP-ANG1 (designed binder, not shown: small tags and cut ends)
chain: ETPEGCEQVLTGKRLMQCLPNPEDVKMALEVYKLSLEIEQLELQRDSARQSTLDKELGGGGSKPFRDCADVYQAGFNKSGIYTIYINNMPEPKKVFCNMDVNGGGWTVIQHREDGSLDFQRGWKEYKMGFGNPSGEYWLGNEFIFAITSQRQYMLRIELMDWEGNRAYSQYDRFHIGNEKQNYRLYLKGHTGTAGKQSSLILHGADFSTKDADNDNCMCKCALMLTGGWWFDACGPSNLNGMFYTAGQNHGKLNGIKWHYFKGPSYSLRSTTMMIRPLDF
notes: Heptamer through disulfide-bridged C4BP segment; also called C4BP-ANG1 chimeric fusion protein

binding (Tie2-Fc): binds
binding (Tie2 receptor on HUVEC): binds
B2: ANG1-C4BP (designed binder, not shown: small tags and cut ends)
chain: KPFRDCADVYQAGFNKSGIYTIYINNMPEPKKVFCNMDVNGGGWTVIQHREDGSLDFQRGWKEYKMGFGNPSGEYWLGNEFIFAITSQRQYMLRIELMDWEGNRAYSQYDRFHIGNEKQNYRLYLKGHTGTAGKQSSLILHGADFSTKDADNDNCMCKCALMLTGGWWFDACGPSNLNGMFYTAGQNHGKLNGIKWHYFKGPSYSLRSTTMMIRPLDFGGGGSETPEGCEQVLTGKRLMQCLPNPEDVKMALEVYKLSLEIEQLELQRDSARQSTLDKEL
